Measurements taken from patent publication EP2718307B1 (Polyphor AG, priority 2011, dated 2012).

Experiment: general procedure: Fmoc solid-phase peptide synthesis; Fmoc-Pro-2-chlorotrityl resin
Details: whole synthesis, UV 220 nm

Substance	final HPLC purity
PEPTIDE1{Y.H.Y.C.S.A.[UDPro].[UOrniPr].R.Y.C.Y.Q.[ULysiPr].[UDPro].P}$PEPTIDE1,PEPTIDE1,16:R2-1:R1|PEPTIDE1,PEPTIDE1,4:R3-11:R3$$$V2.0	95%
PEPTIDE1{Y.H.A.C.S.A.[UDTyrMe].[UOrniPr].R.Y.C.Y.Q.[ULysiPr].[UDPro].P}$PEPTIDE1,PEPTIDE1,16:R2-1:R1|PEPTIDE1,PEPTIDE1,4:R3-11:R3$$$V2.0	95%
PEPTIDE1{Y.H.[UTyrMe].C.S.A.[UDTyrMe].[UOrniPr].R.Y.C.Y.Q.[ULysiPr].[UDPro].P}$PEPTIDE1,PEPTIDE1,16:R2-1:R1|PEPTIDE1,PEPTIDE1,4:R3-11:R3$$$V2.0	95%
PEPTIDE1{Y.H.A.C.S.A.[UDTyr].[UDab].R.Y.C.Y.Q.[ULysiPr].[UDPro].P}$PEPTIDE1,PEPTIDE1,16:R2-1:R1|PEPTIDE1,PEPTIDE1,4:R3-11:R3$$$V2.0	95%
PEPTIDE1{Y.H.[UTyrMe].C.S.A.[UDPro].[UOrniPr].R.Y.C.Y.Q.[ULysiPr].[UDPro].P}$PEPTIDE1,PEPTIDE1,16:R2-1:R1|PEPTIDE1,PEPTIDE1,4:R3-11:R3$$$V2.0	95%
PEPTIDE1{Y.H.Y.C.S.A.[UDTyr].[UOrniPr].R.Y.C.Y.Q.[ULysiPr].[UDPro].P}$PEPTIDE1,PEPTIDE1,16:R2-1:R1|PEPTIDE1,PEPTIDE1,4:R3-11:R3$$$V2.0	95%

Some peptides are written in HELM: one residue between dots, names in brackets for other building blocks, links after the first $. One purity is given for all peptides; the source may state it once.
